The M2OR odorant receptor database
This is a selection; strong and weak results do not stand in their true shares. The calls were merged from several studies; some rest on single wells. This is one part of the list.

Assays:
Settings in all cases: stereoisomer not certain
OR4S2 (Homo sapiens) = target: T1, OR4S2 (Homo sapiens) (UniProt Q8NH73)
T1 sequence (whole entry): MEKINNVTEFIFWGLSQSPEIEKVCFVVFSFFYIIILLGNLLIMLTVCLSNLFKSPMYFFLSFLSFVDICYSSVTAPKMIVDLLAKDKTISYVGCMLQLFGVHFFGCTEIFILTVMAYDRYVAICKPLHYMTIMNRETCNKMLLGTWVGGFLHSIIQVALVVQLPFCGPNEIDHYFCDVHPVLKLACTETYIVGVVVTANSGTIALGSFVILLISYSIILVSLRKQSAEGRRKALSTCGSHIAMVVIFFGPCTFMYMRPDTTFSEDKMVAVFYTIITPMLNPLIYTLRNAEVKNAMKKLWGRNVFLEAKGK
Method in brief: (§1)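 Values were gathered from published papers (main text and supplementary material), with extra details requested from the original authors when needed, and checked for typos and inconsistencies. Each receptor–molecule pair is called responsive (active) if the original authors judged the measured signal statistically different from baseline, and non-responsive (inactive) otherwise. Assay methods varied by source, often transient mammalian cell-line luciferase assays. Recorded details include cell line, G-protein, co-transfected protein and tags.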

OR4X1 = system: T2, OR4X1
T2 sequence (whole entry): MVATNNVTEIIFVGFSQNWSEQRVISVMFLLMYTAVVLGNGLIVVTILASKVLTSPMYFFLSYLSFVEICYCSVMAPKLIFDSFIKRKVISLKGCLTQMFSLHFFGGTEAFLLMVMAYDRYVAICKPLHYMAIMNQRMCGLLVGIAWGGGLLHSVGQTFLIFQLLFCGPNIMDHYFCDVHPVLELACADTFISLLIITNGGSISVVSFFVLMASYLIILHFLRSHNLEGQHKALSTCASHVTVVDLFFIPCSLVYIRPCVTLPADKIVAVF
Method in brief: as §1

OR4X2 (Homo sapiens) = target: T3, OR4X2 (Homo sapiens) (UniProt Q8NGF9)
T3 sequence (whole entry): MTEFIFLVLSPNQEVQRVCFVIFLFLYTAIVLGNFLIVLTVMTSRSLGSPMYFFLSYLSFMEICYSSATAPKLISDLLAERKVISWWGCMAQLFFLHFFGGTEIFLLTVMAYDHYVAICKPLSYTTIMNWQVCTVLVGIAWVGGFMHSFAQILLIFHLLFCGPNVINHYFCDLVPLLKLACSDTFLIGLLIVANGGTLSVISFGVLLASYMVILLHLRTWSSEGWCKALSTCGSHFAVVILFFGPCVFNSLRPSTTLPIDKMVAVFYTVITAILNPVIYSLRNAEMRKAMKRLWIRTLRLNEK
Method in brief: as §1

OR51A2 (Homo sapiens) = target: T4, OR51A2 (Homo sapiens) (UniProt Q8NGJ7)
T4 sequence (whole entry): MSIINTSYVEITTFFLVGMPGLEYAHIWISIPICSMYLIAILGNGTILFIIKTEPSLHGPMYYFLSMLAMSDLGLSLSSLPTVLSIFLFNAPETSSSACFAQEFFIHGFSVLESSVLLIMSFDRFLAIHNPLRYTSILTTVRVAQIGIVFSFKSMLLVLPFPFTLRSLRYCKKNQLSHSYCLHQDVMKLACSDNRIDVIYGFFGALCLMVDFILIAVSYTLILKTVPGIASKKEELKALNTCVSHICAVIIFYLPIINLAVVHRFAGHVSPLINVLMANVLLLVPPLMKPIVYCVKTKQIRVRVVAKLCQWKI
Method in brief: as §1

OR51B2 (Homo sapiens) = target: T5, OR51B2 (Homo sapiens) (UniProt Q9Y5P1)
T5 sequence (whole entry): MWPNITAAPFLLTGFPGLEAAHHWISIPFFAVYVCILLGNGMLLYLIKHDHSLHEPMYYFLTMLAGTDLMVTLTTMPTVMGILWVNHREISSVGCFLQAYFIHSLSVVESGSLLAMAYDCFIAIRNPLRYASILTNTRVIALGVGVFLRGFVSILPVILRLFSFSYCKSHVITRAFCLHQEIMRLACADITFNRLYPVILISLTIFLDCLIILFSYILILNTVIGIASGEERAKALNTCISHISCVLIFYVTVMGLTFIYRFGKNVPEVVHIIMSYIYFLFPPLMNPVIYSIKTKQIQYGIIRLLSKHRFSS
Method in brief: as §1

OR51D1 (Homo sapiens) = target: T6, OR51D1 (Homo sapiens) (UniProt Q8NGF3)
T6 sequence (whole entry): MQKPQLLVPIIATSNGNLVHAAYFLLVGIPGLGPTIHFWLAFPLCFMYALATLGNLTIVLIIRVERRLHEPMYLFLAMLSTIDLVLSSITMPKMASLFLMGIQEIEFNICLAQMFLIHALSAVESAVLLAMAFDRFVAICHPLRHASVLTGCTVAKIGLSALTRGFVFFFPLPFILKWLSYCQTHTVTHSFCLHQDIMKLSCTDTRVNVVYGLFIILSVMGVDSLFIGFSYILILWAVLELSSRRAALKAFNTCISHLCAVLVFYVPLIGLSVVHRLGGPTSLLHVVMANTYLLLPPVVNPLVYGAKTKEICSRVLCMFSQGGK
Method in brief: as §1

OR51E1 (Homo sapiens) [1] = target: T7, OR51E1 (Homo sapiens) (UniProt Q8TCB6)
T7 sequence (whole entry): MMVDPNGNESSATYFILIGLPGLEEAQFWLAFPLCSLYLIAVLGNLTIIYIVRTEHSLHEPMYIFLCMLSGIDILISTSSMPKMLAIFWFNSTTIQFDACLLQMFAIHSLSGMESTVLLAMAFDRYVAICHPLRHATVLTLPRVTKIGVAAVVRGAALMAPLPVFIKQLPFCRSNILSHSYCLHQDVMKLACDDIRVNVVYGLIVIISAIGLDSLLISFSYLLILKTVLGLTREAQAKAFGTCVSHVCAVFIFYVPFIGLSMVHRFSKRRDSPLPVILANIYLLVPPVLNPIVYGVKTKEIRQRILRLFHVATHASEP
Method in brief: as §1

OR51E2 (Homo sapiens) = target: T8, OR51E2 (Homo sapiens) (UniProt Q9H255)
T8 sequence (whole entry): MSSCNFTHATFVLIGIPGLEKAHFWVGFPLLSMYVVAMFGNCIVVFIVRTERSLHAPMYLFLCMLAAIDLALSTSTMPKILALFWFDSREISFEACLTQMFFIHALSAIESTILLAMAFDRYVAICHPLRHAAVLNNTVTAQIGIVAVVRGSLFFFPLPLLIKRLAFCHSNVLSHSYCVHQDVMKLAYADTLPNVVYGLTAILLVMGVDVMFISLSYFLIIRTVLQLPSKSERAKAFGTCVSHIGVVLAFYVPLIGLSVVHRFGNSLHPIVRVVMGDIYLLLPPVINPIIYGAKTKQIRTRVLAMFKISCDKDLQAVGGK
Method in brief: as §1

OR51G1 (Homo sapiens) = target: T9, OR51G1 (Homo sapiens) (UniProt Q8NGK1)
T9 sequence (whole entry): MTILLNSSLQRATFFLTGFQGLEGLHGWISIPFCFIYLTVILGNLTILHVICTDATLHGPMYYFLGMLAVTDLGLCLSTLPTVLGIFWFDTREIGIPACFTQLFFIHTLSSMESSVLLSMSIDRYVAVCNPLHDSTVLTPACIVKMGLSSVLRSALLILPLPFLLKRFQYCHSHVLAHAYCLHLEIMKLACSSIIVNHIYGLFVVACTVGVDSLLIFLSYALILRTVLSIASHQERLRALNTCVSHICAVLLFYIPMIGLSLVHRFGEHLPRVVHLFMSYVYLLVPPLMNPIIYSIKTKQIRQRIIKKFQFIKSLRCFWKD
Method in brief: as §1

OR51H1 (Homo sapiens) = target: T10, OR51H1 (Homo sapiens) (UniProt Q8NH63)
T10 sequence (whole entry): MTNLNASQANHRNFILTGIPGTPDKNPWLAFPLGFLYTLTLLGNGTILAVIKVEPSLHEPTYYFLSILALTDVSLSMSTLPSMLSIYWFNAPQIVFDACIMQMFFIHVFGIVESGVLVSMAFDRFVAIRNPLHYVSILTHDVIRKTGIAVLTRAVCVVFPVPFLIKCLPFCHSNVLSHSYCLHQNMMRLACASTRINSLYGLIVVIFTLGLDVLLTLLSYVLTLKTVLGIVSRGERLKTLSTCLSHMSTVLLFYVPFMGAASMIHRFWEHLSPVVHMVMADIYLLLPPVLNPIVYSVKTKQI
Method in brief: as §1

OR51B5 (Homo sapiens) = target: T11, OR51B5 (Homo sapiens) (UniProt Q9H339)
T11 sequence (whole entry): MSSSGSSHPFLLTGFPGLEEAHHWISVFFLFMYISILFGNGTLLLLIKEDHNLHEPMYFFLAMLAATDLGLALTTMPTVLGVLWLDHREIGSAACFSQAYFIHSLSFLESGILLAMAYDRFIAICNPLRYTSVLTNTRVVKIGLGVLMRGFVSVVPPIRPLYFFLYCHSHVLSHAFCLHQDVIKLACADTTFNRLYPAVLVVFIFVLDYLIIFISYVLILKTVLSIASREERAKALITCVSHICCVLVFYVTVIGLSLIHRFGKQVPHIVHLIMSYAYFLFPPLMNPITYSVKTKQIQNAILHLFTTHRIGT
Method in brief: as §1

OR51E1 (Homo sapiens) [2] = target: T12, OR51E1 (Homo sapiens) (UniProt Q8TCB6); remark: listed apart in the source
T12 sequence (whole entry): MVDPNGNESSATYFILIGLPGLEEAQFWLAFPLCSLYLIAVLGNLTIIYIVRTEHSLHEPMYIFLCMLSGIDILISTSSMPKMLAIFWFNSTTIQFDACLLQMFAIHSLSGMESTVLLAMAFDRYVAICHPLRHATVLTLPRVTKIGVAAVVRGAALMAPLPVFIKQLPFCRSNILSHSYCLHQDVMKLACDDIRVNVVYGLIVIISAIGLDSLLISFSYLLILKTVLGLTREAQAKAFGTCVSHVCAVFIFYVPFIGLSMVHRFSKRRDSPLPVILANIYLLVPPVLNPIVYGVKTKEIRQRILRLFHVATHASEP
Method in brief: as §1

Row | Compound | odorant receptor agonist call (OR4S2 (Homo sapiens)) | odorant receptor agonist call (OR4X1) | odorant receptor agonist call (OR4X2 (Homo sapiens)) | odorant receptor agonist call (OR51A2 (Homo sapiens)) | odorant receptor agonist call (OR51B2 (Homo sapiens)) | odorant receptor agonist call (OR51D1 (Homo sapiens)) | odorant receptor agonist call (OR51E1 (Homo sapiens) [1]) | odorant receptor agonist call (OR51E2 (Homo sapiens)) | odorant receptor agonist call (OR51G1 (Homo sapiens)) | odorant receptor agonist call (OR51H1 (Homo sapiens)) | odorant receptor agonist call (OR51B5 (Homo sapiens)) | odorant receptor agonist call (OR51E1 (Homo sapiens) [2])
1 | CC(=O)OC1CC2CCC1(C)C2(C)C (stereo not given) | inactive | inactive | inactive | inactive | inactive | inactive | inactive | inactive | inactive | inactive | – | –
2 | CCCCCC(=O)O | inactive | inactive | inactive | inactive | inactive | inactive | inactive | inactive | inactive | inactive | inactive | inactive
3 | C=CC(C)(O)CCC=C(C)C (stereo not given) | inactive | inactive | inactive | inactive | inactive | inactive | inactive | inactive | inactive | inactive | inactive | –
4 | CCC=CCCO | inactive | inactive | inactive | inactive | inactive | inactive | inactive | inactive | inactive | inactive | – | –
5 | CCCCCCCCCCC=O | inactive | inactive | inactive | inactive | inactive | inactive | inactive | inactive | inactive | inactive | inactive | –
6 | CCCCCCCCCC=O | inactive | inactive | inactive | inactive | inactive | inactive | active | inactive | inactive | inactive | – | inactive
